Source: PubChem BioAssay AID2685 (National Center for Advancing Translational Sciences (NCATS), 2010)
Out of some 320,000 compounds screened, about 2,100 (0.66%) were called active. This list was built around the results that the source calls inconclusive (neither active nor inactive); the mix of calls is not that of the screen. Calls follow the shape of the dose curve; as a rule, active = well fitted inhibition curve with a large enough effect in the signal ratio, with a control signal flat (not every such curve was filed as active); inconclusive = small, poorly fitted or top-dose-only effect, or effect the other way, or a change in a side signal; inactive = flat fitted curve, though single readings scatter; the % refers to the signal ratio. Where the call is inconclusive, the potency comes from a doubtful curve fit.

Assay: qHTS Assay for Lipid Storage Modulators in Drosophila S3 Cells
Conditions: BODIPY lipid droplet fluorescence, 18-24 h, cells fed with added oleic acid; lipid storage change, negative = inhibition: at 46.1 µM (top of the series) unless noted
Outline: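 Drosophila S3 cells loaded with oleic acid (400 uM, as added) and compounds at several concentrations; lipid droplets imaged by 488-nm laser-scanning cytometry, 500–530 nm intensity and object ratio to cell channel. Percent activity normalized to 20 uM Triacsin C.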
% is scaled to controls: 0 for no effect and ±100 for the full control effect; potency is read from the fitted curve at half-maximal effect.

Lipid storage change, negative = inhibition, inconclusive:
CC(NC(=O)COc1ccc(Oc2ccccc2)cc1)C(=O)O (centres undefined) -9.96%
CN(C)CCN(C)Cc1c2ccccc2c(CN(C)CCN(C)C)c2ccccc12 11.4%
CC(Sc1ccc(S(=O)(=O)N2CCN(C)CC2)cn1)C(=O)NC1(C#N)CCCCC1 (centres undefined)
CC(=O)c1cccc(NC(=O)CCC(=O)Oc2ccc(C)cc2)c1 32.9%
O=C(O)c1cccc(Cl)n1 14.6%
O=C(N/N=C\c1cc(Br)cs1)c1ccncc1 21.4%
CCOC(=O)CNc1ccc(C(=O)OCC)cc1[N+](=O)[O-] 31.3%
O=C(N/N=C/C=C/c1ccco1)c1cnccn1 0.191%
O=C(Nc1cc(C(F)(F)F)ccc1N1CCOCC1)c1c(F)c(F)c(F)c(F)c1F 1.13%
Cc1[nH]c2ccccc2c1/C=C(\C#N)C(=O)NC(C)c1ccccc1 (centres undefined) 255%
CC(=O)c1nc(-c2ccccc2)sc1C -4.41%
COc1ccccc1NS(=O)(=O)c1cc(NC(=O)c2ccc(Cl)nc2)ccc1Cl 31%
Clc1ccc(-c2cc(CN3CCOCC3)no2)cc1 12.3%
O=C(c1cccc(S(=O)(=O)N2CCOCC2)c1)N1CCN(c2ccc(F)cc2)CC1 25.8%
N=C1/C(=C/c2cccn2-c2cccc([N+](=O)[O-])c2)C(=O)N=C2SC=CN12 17.2%
O=C(CCN1C(=O)c2ccccc2C1=O)Nc1ccc(S(=O)(=O)NC2=NCCCCC2)cc1 13.5%
CCn1c(SCC(=O)Nc2nc(-c3ccc(C)cc3)cs2)nnc1-c1ccccc1O -64.5%
C/C(Cn1nnc([N+](=O)[O-])n1)=N\NC(=O)c1cccc(Cl)c1 29.7%
O=C(Nc1cc2c(cc1C(=O)O)OCCCO2)c1ccc(C(F)(F)F)cc1 26%
O=c1c2[nH]cnc2n(-c2cccc(Br)c2)c(=O)n1Cc1ccccc1 12.8%
CCOC(=O)c1cnc(SCc2cccc(C)c2)nc1N 28.9%
O=S(=O)(c1ccccc1)N1CCCC1c1nc2ccccc2s1 (centres undefined) -10.8%
O=C(N[C@@H](Cc1ccccc1)C(=O)O)c1cccnc1 -4.04%
CC(NC(=O)C(C)N1c2cccc3cccc(c23)S1(=O)=O)c1ccccc1 (centres undefined) -72.4%
Cn1nccc1C(=O)NC1CCN(Cc2ccccc2)CC1 14%
CC(C)CC(c1nnnn1C1CCCCC1)N1CCN(C(=O)c2ccco2)CC1 (centres undefined) 78.1%
O=C(COC(=O)CNC(=O)c1ccc(Cl)cc1Cl)NC1CCCCCCC1 -9.31%
Cc1ccc(-c2n[nH]c(=S)c3ccccc23)cc1 18.3%
COc1cc(C(=O)Nc2ccc(S(=O)(=O)N3CCc4ccccc43)cc2)cc(OC)c1OC 32.7%
CCCCN=C(C)c1c(O)c2ccccc2oc1=O 13%
CCc1cc2c(=O)n(Cc3ccco3)c(SCC(=O)N3CCCc4ccccc43)nc2s1 17.4%
O=C(CCN1C(=O)c2ccccc2S1(=O)=O)Nc1ccc(F)c(F)c1F
O=C(NCCCN1CCOCC1)c1onc(CSc2nc3ccccc3[nH]2)c1C(=O)NCCCN1CCOCC1 0.989%

Structures listed so far with a COOH group (4):
Lipid storage change, negative = inhibition, inconclusive:
CC(NC(=O)COc1ccc(Oc2ccccc2)cc1)C(=O)O (centres undefined) -9.96%
O=C(O)c1cccc(Cl)n1 14.6%
O=C(Nc1cc2c(cc1C(=O)O)OCCCO2)c1ccc(C(F)(F)F)cc1 26%
O=C(N[C@@H](Cc1ccccc1)C(=O)O)c1cccnc1 -4.04%

Next part:

Lipid storage change, negative = inhibition, inactive:
Cc1ccc(-n2c(C)nnc2SCC(=O)N2CCc3ccccc3C2)cc1

Potency, inconclusive:
CC(CC(=O)NNC(=O)c1ccncc1)c1ccccc1 (centres undefined) 13 nM [activator, full curve, poor fit]
O=C(c1ccccc1)N1CCN(C2c3cccc4cccc(c34)C2NS(=O)(=O)c2ccccc2)CC1 (centres undefined) 164 nM [falling, partial curve, poor fit]
Cc1ccc(C(=O)NCC(=O)OCC(=O)Nc2ccc3[nH]c(=O)[nH]c3c2)cc1 16400 nM [activator, single point]
Cc1ccc(C(=O)c2ccc([N+](=O)[O-])cc2)cc1C 4110 nM [activator, single point]
CCC(CO)NC(=O)c1cccc(S(=O)(=O)N2c3ccccc3CC2C)c1 (centres undefined) 3260 nM [falling, full curve]
Cc1ccc(N(C(=O)c2ccco2)C(C(=O)NC2CCCC2)c2ccco2)c(C)c1 (centres undefined) 6510 nM [activator, partial curve]
O=C(CNC(=O)c1cccc(Cl)c1)NCC(c1cccs1)N1CCOCC1 (centres undefined) 4.6 nM [falling, full curve, poor fit]
CC(=O)c1ccc(NC(=O)CN2CCC(C(=O)c3ccc4c(c3)OCCO4)CC2)cc1 1030 nM [activator, full curve]
Cc1cccc(OCC(O)Cn2c(NCc3cccnc3)nc3c2c(=O)[nH]c(=O)n3C)c1 (centres undefined) 1300 nM [activator, full curve, poor fit]
CCCCNC(=O)c1cc2c(=O)n3cccc(C)c3nc2n1C 6510 nM [rising, single point]
Cc1ccc(CC(=O)Nc2ccc(C(=O)N3CCOCC3)cc2)cc1 6.5 nM [activator, full curve, poor fit]
COc1ccccc1OCCn1cc(/C=C(\C#N)C(=O)NCc2cccs2)c2ccccc21 32600 nM [falling, single point]
COc1ccccc1NS(=O)(=O)c1ccc(C)c(C(=O)NCC2(N(C)C)CCCCC2)c1 2310 nM [activator, single point]
COc1cccc(-c2csc3nnc(SCC(=O)c4ccc(NC(C)=O)cc4)n23)c1 5800 nM [activator, partial curve]

Potency, active:
Cc1nnnn1/C(=C\c1ccccc1)C(=O)OCC(=O)N1CC2(C)CC1CC(C)(C)C2 (centres undefined) 1840 nM
